According to patent US12428459B2, “Protein tag to induce ligand dependent degradation of protein/protein-fusions” (DANA-FARBER CANCER INSTITUTE, INC., priority 2019, dated 2025):
pKi: −log10 of the molar value. Some of these results come from one statement about several compounds together. At least one compound was matched to its structure with a doubt left.

Target: T1, DDB1ΔB-DCAF15biotin (Homo sapiens, UniProt Q66K64)
T1 construct: Full-length human DCAF15 was used in all TR-FRET assays; made in house; host or cells: Trichoplusia ni High Five insect cells (baculovirus)
Assay: TR-FRET competition assay: displacement of BodipyFL-E7820 by aryl-sulfonamides
Type: binding
Details: DDB1ΔB-DCAF15biotin 200 nM, BodipyFL-E7820 5 μM, aryl-sulfonamides 0.002-100 μM; read-out: Ki for DCAF15
Text: The 520/490 nm ratios from the sample with DCAF15 was subtracted by the ratios from the sample without DCAF15, and the subtracted values were plotted to calculate the Kd values estimated using One site-Specific binding equation in GraphPad Prism® 7. All TR-FRET results are plotted as means±s.d. from three independent replicates (n=3) unless otherwise indicated.

Work on `O=C(NS(=O)(=O)c1ccc(Br)s1)c1ccc(Cl)cc1Cl` [tasisulam] yielded a pKi of under 4.30.
